Test results from PubChem BioAssay AID1347076 (National Center for Advancing Translational Sciences (NCATS), 2019).
The whole screen tested about 400,000 compounds, of which about 13,000 (3.2%) were called active. The shares of active, inactive and inconclusive entries below differ from those in the screen. Calls follow the shape of the dose curve; as a rule, active = well fitted cell-killing curve with a large enough effect; inconclusive = small, poorly fitted or top-dose-only effect, or effect the other way; inactive = flat fitted curve, though single readings scatter. Potencies beside an inconclusive call are fits to weak or partial responses and may not hold up.

assay: qHTS assay for MDR1-selective chemotherapeutics: Primary screen using the drug-selected MDR subline cells KB-V1; settings: KB-V1 MDR cells viability, CellTiter-Glo, 72 h; series mostly up to 46.1 µM; also: nearly all actives have a fitted effect of over 60% in size
How it was run: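 Potencies derive from concentration-effect curves fitted to normalized luminescence (CellTiter-Glo) of KB-V1 cells treated for 72 h at 37 degrees C in phenol-red-free DMEM containing 10% FBS.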
Potency is read from the fitted curve at half-maximal effect.

| Compound | Potency |
| --- | --- |
| Cc1ccc(NC(=O)Cc2nnc(SCC(=O)NC3CCCC3)n2C)cc1 | inconclusive: 29.1 µM [rising, single point] |
| COc1cc2nc3n(c(=O)c2cc1OC)-c1cc2ccccc2cc1C(=O)NC3CC(C)C (configuration not stated) | inconclusive: 23.1 µM [cytotoxic, single point] |
| O=C1C=C(NNC(=O)c2ccncc2)CC(c2ccccc2)C1 (configuration not stated) | inconclusive: 5.17 µM [rising, full curve] |
| O=C(C[C@H]1C[C@H](C(=O)N2CCOCC2)[C@@]2(CCC3CCCC3)c3[nH]c4cc(-c5ccco5)ccc4c3CCN2C1=O)NCc1cccc(C(F)(F)F)c1 | active: 16.4 µM |
| COc1ccc(Cn2c(=O)[nH]c3cc(OC)c(OC)cc3c2=O)cc1 | inactive |
| N#CC(c1ccc(Cl)cc1)c1ccc2c(C(F)(F)F)cc(C(F)(F)F)nc2n1 (configuration not stated) | inconclusive: 29.1 µM [cytotoxic, single point] |
| CCOC(=O)C1(CC2CCCCO2)CCN(C(=O)Nc2ccccc2)CC1 (configuration not stated) | inconclusive: 29.1 µM [cytotoxic, partial curve, poor fit] |
| CCOc1ccccc1N1CCN(Cc2ccc(OC)c(OC)c2)CC1 | active: 16.4 µM |
| O=C(Nc1ccc(S(=O)(=O)N2CCCC2)cc1)c1ccc(CN2CCOCC2)cc1 | inconclusive: 3.66 µM [cytotoxic, full curve, poor fit] |
| COc1ccc(C(=O)N/N=C(\C)CC(=O)Nc2cccc(C(F)(F)F)c2)cc1 | inconclusive: 0.206 µM [cytotoxic, full curve] |
| CCOC(=O)C1CCN(C(=O)c2c(C)nn(-c3ccc(F)cc3)c2-n2cccc2)CC1 | inconclusive: 13 µM [cytotoxic, single point] |
| Cc1cc(NC(=O)CSc2nc3cc4c(cc3c(=O)n2CCc2ccccc2)OCO4)no1 | inconclusive: 1.3 µM [cytotoxic, partial curve] |
| Cc1c(Cl)cccc1-c1ccc(/C=N/n2cnnc2)o1 | active: 2.91 µM |
| O=C(Cn1nnc(-c2ccc(S(=O)(=O)N3CCCC3)cc2)n1)Nc1ccccc1-n1cccc1 | inconclusive: 16.4 µM [cytotoxic, partial curve, poor fit] |
| Nc1c(C(=O)Nc2ccccc2)nnn1-c1ccc2c(c1)OCCO2 | inconclusive: 14.6 µM [cytotoxic, partial curve] |
| COC(=O)c1noc(C)c1-c1ccnn1C(=O)c1ccc(C)cc1 | inconclusive: 3.26 µM [rising, full curve, poor fit] |
| O=C(C1CCCN(Cc2ccccc2F)C1)N1CCc2ccccc2C1 (configuration not stated) | inconclusive: 11.6 µM [cytotoxic, partial curve] |

Pulled one by one from the entries so far, two records:

| Compound | Potency |
| --- | --- |
| COc1cc2nc3n(c(=O)c2cc1OC)-c1cc2ccccc2cc1C(=O)NC3CC(C)C (configuration not stated) | inconclusive: 23.1 µM [cytotoxic, single point] |
| CCOC(=O)C1(CC2CCCCO2)CCN(C(=O)Nc2ccccc2)CC1 (configuration not stated) | inconclusive: 29.1 µM [cytotoxic, partial curve, poor fit] |
